The source of these data is publication PMC7062188, “The crystal structure of human forkhead box N1 in complex with DNA reveals the structural basis for forkhead box family specificity”.

The exact form of at least one protein or probe is not confirmed. Negatives hold for the conditions tested. At least one verdict rests on a figure or table, not on a statement of the authors. Where a protein sequence is shown, tags need not be part of it.

This data set concerns the target T1, FOXN1 N-terminal region + forkhead domain (human) (UniProt O15353).
T1 sequence (looked up, limits assumed): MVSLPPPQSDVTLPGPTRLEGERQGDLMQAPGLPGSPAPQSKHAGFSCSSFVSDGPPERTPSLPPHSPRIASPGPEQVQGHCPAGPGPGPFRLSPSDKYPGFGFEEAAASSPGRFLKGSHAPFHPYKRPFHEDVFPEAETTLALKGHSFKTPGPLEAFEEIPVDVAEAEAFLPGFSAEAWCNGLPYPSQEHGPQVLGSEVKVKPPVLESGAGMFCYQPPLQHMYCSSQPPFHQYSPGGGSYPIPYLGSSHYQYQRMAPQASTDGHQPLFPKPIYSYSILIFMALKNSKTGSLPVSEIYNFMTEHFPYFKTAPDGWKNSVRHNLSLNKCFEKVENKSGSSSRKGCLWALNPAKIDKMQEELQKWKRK
Kind of data set: EMSA. Particulars: adding N-terminal region had no effect on binding relative to forkhead domain; EMSA: 50 mM Tris-HCl pH 7.5, 25 mM NaCl, 0.5 mM EDTA, 0.1% Tween 20, 2 mM DTT, 5% glycerol, 30 min room temperature; recombinant protein; label: 32P on forward strand (5', T4 PNK). A general note: Mobility shift assays separate free from complexed probe on a gel.

As to “GCAGCAGACGCAACAGAGCGAGACGCCAGGG (double strand) [PSMA7 tandem FHL EMSA probe]”, the binding result is listed as “no binding”.
